This is one part of the list. Further columns of the screen follow, without active or inactive calls. Most of these compounds were active or inconclusive in the main read-out, so they are no random draw. Words in brackets tell the shape of the fitted curve; partial curves, single points and poor fits give uncertain potencies.
Assay: IkB Signaling
Conditions: ABC-DLBCL IkBa-CBG/CBR dual luciferase ratio (green luciferase fused to IkBa over red control in OCI-Ly3 lymphoma cells), 4 h
Method in brief: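 Luminescence ratio of IκBα-fused green versus native red beetle luciferase in OCI-Ly3 cells, 4 h post-doxycycline with compound; red signal alone, scaled from basal (0%) to zero light (-100%), flagged nonspecific or cytotoxic effects.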

[1] = measured here: control luc red channel unless noted

## O=S(=O)(c1ccc(Cl)cc1)c1nnn2c1nc(NCc1ccc3c(c1)OCO3)c1sccc12
[1]
  AC50: 20 µM [falling, partial curve, poor fit]

## COc1cc(Nc2cc(C)nc3ncnn23)cc(OC)c1
[1]
  AC50: 15.8 µM [rising, partial curve] [measured here: IkB-luc green channel]

## Cc1ccc(N(CC(=O)Nc2cc(C)ccc2C)S(=O)(=O)c2c(C)noc2C)cc1
[1]
  AC50: 15.8 µM [falling, partial curve]

## COc1cc(Cl)c(NS(=O)(=O)c2cc(-c3cc(C)no3)ccc2OC)c(OC)c1
[1]
  AC50: 2.51 µM [rising, partial curve, poor fit]

## CC1CC(N(C(=O)c2ccco2)c2ccccc2)c2ccccc2N1 (stereo unspecified)
[1]
  AC50: 20 µM [falling, partial curve]

## CCOc1ccccc1NC(=O)C1CCN(S(=O)(=O)c2ccc3c(c2)CCCN3C(C)=O)CC1
[1]
  AC50: 15.8 µM [falling, partial curve]

## CCS(=O)(=O)c1ncc(Cl)c(C(=O)Nc2ccccc2)n1
[1]
  AC50: 7.94 µM [falling, full curve]

## CCC(=O)N1CCc2cc(CNC(=O)c3ccc(OC)cc3)ccc21
[1]
  AC50: 2.51 µM [rising, full curve]

## CCn1nc(-c2ccccc2)c(-c2ccccc2)c(C(=O)Nc2nc(C)c(C(C)=O)s2)c1=O
[1]
  AC50: 20 µM [falling, partial curve]

## Cc1ccc(NC(=O)CSc2nc(=O)n(Cc3ccco3)c3c2CCC3)cc1F
[1]
  AC50: 15.8 µM [falling, partial curve]

## CCn1c(=O)cc(SCC(=O)NCCCN2CCN(c3ccc(F)cc3)CC2)c2ccccc21
[1]
  AC50: 7.94 µM [falling, partial curve]

## O=C(Nc1sc2c(c1C(=O)Nc1cccc(Cl)c1)CCCC2)c1cccs1
[1]
  AC50: 7.94 µM [falling, full curve]

## O=C(CSc1ncn(-c2ccccc2)n1)Nc1nc2ccccc2s1
[1]
  AC50: 15.8 µM [falling, partial curve]

## Cc1ccc2c(c1)-c1onc(C(=O)N3CCN(c4cc(Cl)ccc4C)CC3)c1CO2
[1]
  AC50: 5.01 µM [falling, partial curve]

## CCOc1ccc(-c2nnc(SCC(=O)Nc3ccc(C)cc3Cl)o2)cc1
[1]
  AC50: 3.98 µM [rising, partial curve]

## O=C(Nc1cc(N2CCOCC2)ncn1)NC1(C(F)(F)F)Oc2ccc(Cl)cc2O1 (stereo unspecified)
[1]
  AC50: 10 µM [falling, partial curve]

## O=C(Nc1ccc(Cl)cn1)c1cc2ccccc2o1
[1]
  AC50: 6.31 µM [falling, partial curve]

## CCN(Cc1ccccc1)C(=O)c1cc2c(=O)[nH]c3ccc(C)cc3c2s1
[1]
  AC50: 0.158 µM [falling, full curve, poor fit]

## Cc1cccc(Cn2c(COc3ccc(Cl)cc3)nc3ccccc32)c1
[1]
  AC50: 20 µM [falling, single point]

## Cc1ccc(CCNC(=O)c2cc3n(n2)CCCN(Cc2ccc(C)cc2)C3=O)cc1
[1]
  AC50: 6.31 µM [rising, single point]

## Cn1c(SCc2nc3ccccc3s2)nnc1-c1ccc2c(c1)OCO2
[1]
  AC50: 15.8 µM [falling, partial curve]

## CCOc1ccc(S(=O)(=O)N(CC(=O)NCCSc2ccc(C)cc2)c2ccccc2)cc1
[1]
  AC50: 12.6 µM [falling, partial curve]

## Cc1ccc(NC(=O)N2CCN(c3ccc(Cl)c(Cl)c3)CC2)cc1
[1]
  AC50: 2.51 µM [falling, full curve]

## CCOC(=O)c1ccc(NC(=O)CC2Nc3ccccc3NC2=O)cc1 (stereo unspecified)
[1]
  AC50: 3.98 µM [falling, partial curve]

## O=C(Nc1cc(-c2nc3cc(Cl)ccc3o2)ccc1Cl)c1cc([N+](=O)[O-])ccc1N1CCOCC1
[1]
  AC50: 6.31 µM [falling, partial curve]

## Cn1c(=O)oc2cc(S(=O)(=O)N3CCN(c4cccc(Cl)c4)CC3)ccc21
[1]
  AC50: 3.16 µM [falling, full curve]

## Cc1ccc(-c2nnc(Nc3ccc(F)cc3)c3ccccc23)cc1S(=O)(=O)N1CCN(C)CC1
[1]
  AC50: 15.8 µM [falling, partial curve]

## CCOc1cccc2c1Oc1nc(-c3ccccc3)nc(SCC(=O)Nc3ccc(F)cc3)c1C2
[1]
  AC50: 25.1 µM [falling, single point]

## COc1ccc(OC)c(CCNC(=O)c2cnn(-c3ccc(C)cc3C)c2C2CCN(C(=O)OC(C)(C)C)CC2)c1
[1]
  AC50: 15.8 µM [falling, partial curve]

## Cc1c(C(=O)N2CCC(C)CC2)c(S(=O)(=O)Nc2cccc(C(F)(F)F)c2)c(C)n1C
[1]
  AC50: 39.8 µM [falling, single point]

## COc1ccc(CNC(=O)Cn2c(=O)ccc3cc(S(=O)(=O)N4CCCC4)ccc32)cc1
[1]
  AC50: 0.398 µM [rising, full curve]

## COc1ccc2[nH]cc(CCNC(=O)c3cnn(-c4ccc(C)cc4)c3C3CCN(C(=O)OC(C)(C)C)CC3)c2c1
[1]
  AC50: 15.8 µM [falling, partial curve]

## CC(=O)Nc1ccc(NC(=O)C2(c3cccs3)CCOCC2)cc1
[1]
  AC50: 3.98 µM [rising, partial curve]

## CC(C)N(Cc1ccccc1)C(=O)C1CCCN(c2ncnc3onc(-c4ccc(F)cc4)c23)C1 (stereo unspecified)
[1]
  AC50: 31.6 µM [falling, partial curve]

## COc1ccc(OC)c(NC(=O)c2cc(C3CC3)nc3c2c(C)nn3-c2ccc(C)cc2)c1
[1]
  AC50: 15.8 µM [falling, partial curve]

## Cc1ccc(S(=O)(=O)N2CCCC(C(=O)N(Cc3cccs3)C3CC3)C2)cc1 (stereo unspecified)
[1]
  AC50: 12.6 µM [falling, partial curve]

## COc1ccc(C(=O)NCc2ccc3c(c2)CCN3C(=O)c2ccc(C)cc2)cc1
[1]
  AC50: 5.01 µM [falling, partial curve]

## O=C(CSCc1ccc(Cl)cc1)c1ccco1
[1]
  AC50: 39.8 µM [falling, single point]

## Cc1ccc(CNC(=O)C2CCN(Cc3nc(-c4cccc(Br)c4)oc3C)CC2)cc1
[1]
  AC50: 31.6 µM [falling, partial curve, poor fit]

## CC(C)CCNC(=O)C(c1ccco1)N(Cc1ccccc1)C(=O)c1snc(C(N)=O)c1N (stereo unspecified)
[1]
  AC50: 12.6 µM [falling, partial curve]

## CCOc1ccc(-n2c(=O)c3c4c(sc3n(CC(=O)NC(C)CC)c2=O)CCCC4)cc1 (stereo unspecified)
[1]
  AC50: 0.00794 µM [rising, full curve, poor fit]

## COc1cccc(N2CCN(C(=O)CCCCCn3c(=O)[nH]c4ccccc4c3=O)CC2)c1
[1]
  AC50: 31.6 µM [falling, single point]

## CC1CCn2c(nc3cc(C(=O)NCc4ccc(OC(C)C)cc4)ccc32)C1 (stereo unspecified)
[1]
  AC50: 31.6 µM [falling, partial curve]

## CCC(C(=O)NC1CCC(C)CC1)n1nc(C)c2sc3ccccc3c2c1=O (stereo unspecified)
[1]
  AC50: 12.6 µM [falling, partial curve]

## CCc1ccc(CNC(=O)c2cc3c(=O)n(Cc4cccs4)ccc3nc2C)cc1
[1]
  AC50: 39.8 µM [falling, single point]

## c1ccc(-c2nc(CSc3nnc(-c4cccs4)o3)cs2)cc1
[1]
  AC50: 20 µM [falling, partial curve]

## COc1ccc(Cn2ccc3nc(C)c(C(=O)N4CCN(c5ccc(OC)cc5)CC4)cc3c2=O)cc1
[1]
  AC50: 31.6 µM [falling, single point]

## NC(=O)c1ccsc1NC(=O)c1nc(-c2ccccc2)n(-c2ccccc2)n1
[1]
  AC50: 15.8 µM [falling, partial curve]

## Cc1cc(-n2c(C)cc(C(=O)CN3C(=O)NC4(CCCCCC4)C3=O)c2C)no1
[1]
  AC50: 15.8 µM [falling, partial curve]

## COc1ccc(-n2ncc(C(=O)N3CCN(c4cc(C)ccc4C)CC3)c2C2CCN(C(=O)OC(C)(C)C)CC2)cc1
[1]
  AC50: 39.8 µM [falling, single point]

## CC1(C)Cc2c(sc3nc(SCC(=O)N4CCOCC4)nc(N)c23)CO1
[1]
  AC50: 3.98 µM [falling, full curve, poor fit]

## CCS(=O)(=O)c1ncc(Cl)c(C(=O)Nc2c(C(=O)Nc3cccc(C)c3)oc3ccccc23)n1
[1]
  AC50: 12.6 µM [falling, partial curve]

## COc1ccc(C)cc1NC(=O)c1cc2c(=O)n(Cc3cccnc3)ccc2nc1C
[1]
  AC50: 31.6 µM [falling, single point]

## Cc1noc(/C=C/N(C)C)c1S(=O)(=O)N1CCc2ccccc21
Measured here: IkB-luc green channel
  AC50: 15.8 µM [falling, partial curve]
Measured here: control luc red channel
  AC50: 10 µM [falling, partial curve]

## CCc1ccc(C(=O)N2CCC(c3nc(-c4ccc(S(=O)(=O)N5CCCC5)cc4)no3)CC2)cc1
[1]
  AC50: 12.6 µM [falling, partial curve]

## CCCCS(=O)CC(COc1ccc(Cl)cc1)OC(=O)c1ccccc1 (stereo unspecified)
[1]
  AC50: 25.1 µM [falling, partial curve]

## CCCOc1ccc(CNC(=O)CCCn2nc(C)c3sc4ccccc4c3c2=O)cc1
[1]
  AC50: 25.1 µM [falling, single point]

## COCCOC(=O)C1=C(C)NC(C)=C(C(=O)OC(C)C)[C@@H]1c1cccc([N+](=O)[O-])c1
[1]
  AC50: 39.8 µM [falling, partial curve]

## Cc1cccc(NC(=O)C2CCN(S(=O)(=O)c3cccc4cccnc34)CC2)c1
[1]
  AC50: 7.94 µM [falling, partial curve]

## CC1CCCN(Cc2nc3c(c(=O)n(C)c(=O)n3C)n2Cc2ccc(Cl)cc2)C1 (stereo unspecified)
[1]
  AC50: 5.01 µM [falling, partial curve]
